Oligonucleotides screened, 5′ to 3′:
PreQ1: PreQ1 riboswitch RNA pseudoknot, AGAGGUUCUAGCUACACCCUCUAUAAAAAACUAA. From B. subtilis. About 24,000 compounds screened, about 170 hits.

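The test is a small-molecule microarray: each compound is printed twice on a reactive slide, and binding shows as fluorescence of the labelled oligonucleotide after washing. The data file lists only calls. An earlier report of the laboratory on the PreQ1, TPP and SAM-II riboswitches (doi:10.1038/s41467-019-09493-3) used 1 µM RNA for 2 h and required a mean Z-score above 3 (spot signal-to-noise against the whole library), a score well above that on a control array, and duplicate spots agreeing (coefficient of variation under 100); it then also set aside compounds that hit other targets, which this list keeps. The cut-offs behind this list may differ. The calls come from the array alone, and fixing a compound to the slide can hide its binding.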 Key: Y = hit, N = tested without a hit. Compounds were drawn at random from those tested, without regard to their results.

SMILES	PreQ1
CCC1CC(C)(c2csc(Nc3ccccc3)n2)OC1=O (stereo not given)	N
CCNc1c(NS(=O)(=O)CC)c(=O)oc2ccccc12	N
COC(=O)c1cccc(Nc2cc(C)nc3nc(-c4cccnc4)nn23)c1	N
COc1ccc2c(c1O)[C@@]13CCN(C)[C@H](C2)[C@@H]1CCC(=O)C3	N
COc1ccc(S(=O)(=O)N2CCC(NC(=O)NCC(C)O)CC2)cc1 (stereo not given)	N
C[C@H](O)C(=O)N1CCc2ccc(S(=O)(=O)NCCOc3ccccc3)cc2C1	N
O=C(NCCO)c1ccc(C=NO)nc1	N
CCC1CN(C(=O)c2ccc(CO)o2)CCC(=O)N1Cc1ccccc1 (stereo not given)	N
N#Cc1c(-c2cccc(-n3cccn3)c2)cc(-c2ccc(O)cc2)nc1N	N
N#Cc1ccccc1N1CCN(C(=O)C(O)c2ccc(F)cc2)CC1=O (stereo not given)	N
CNCCN1C(=O)CC[C@H]2CN(C(=O)c3c[nH]c4nc(C)nn4c3=O)CC[C@H]21	N
CCOc1ccc(C2c3c(-c4cc(C)ccc4O)n[nH]c3C(=O)N2CCCO)cc1OC (stereo not given)	N
CCC[C@H]1CN(c2nc(C)ccc2C(=O)O)C[C@@H]1N	N
Cc1c(C(=O)N2CCOC3(CNCCOC3)C2)n(C)c2c(C)cccc12 (stereo not given)	N
CCn1c(C)nnc1SCCNC1CCN(c2nc3ccccc3o2)CC1	N
CNc1nc(C)c(C(=O)OCc2ccccc2)s1	N
CCCc1cc(CNC(=O)c2ccc(N3CCc4nc(N)sc4C3)nc2)on1	N
CNc1ccc(Cl)cc1C(=O)NCCNC(=O)C(F)(F)F	N
Cc1ccc(NC(=O)N2CCCC(CO)C2)cn1 (stereo not given)	N
NC(=O)C1=C(Nc2ccccc2Cl)c2ccccc2S1(=O)=O	N
C=CCn1c(CCNC(=O)CCCO)nc2ccccc21	N
O=C(C1CNCCN1C(=O)c1ccc(Cn2ccnc2)o1)N1CCCC1 (stereo not given)	N
CCc1nc(NCCCO)c(C#N)c2c1CCCC2	N
COc1ccc(CNc2nc3c(C)cccc3cc2-c2noc(C)n2)cc1	N
COc1ccc2cc(-c3ccccc3CN)ccc2c1	Y
CCNc1ccc(S(=O)(=O)C(F)(F)F)cc1[N+](=O)[O-]	N
COc1ccc(C(=S)N2CCN(c3ccccc3Cl)CC2)cc1OC	N
Cc1ccc(CSc2nnc(N)s2)cc1	N
O=C(c1cccc(Oc2ccccc2)c1)N1CCOCC(CO)C1 (stereo not given)	N
O=C(O)C(F)(F)F.O=S(=O)(c1ccc2ccccc2c1)N1CCC(Nc2ccccc2Cl)CC1	N
COc1ccc(-c2n[nH]c3c2C2(C(=O)Nc4ccc(Br)cc42)C(C#N)=C(N)O3)cc1OC (stereo not given)	N
O=c1oc2ccccc2c2c1C(c1ccc3c(c1)OCO3)Nc1ccc3ccccc3c1-2 (stereo not given)	N
CC1(C)NC(=O)N(CC(O)CN(c2ccccc2)c2ccccc2)C1=O (stereo not given)	N
CCCOc1cc(Cl)c(CN2CC[C@H]3NCCC[C@]3(CO)C2)cc1OC	N
COc1cccc(N2CCN(C(=O)c3cc(N)ccn3)C(C)C2=O)c1 (stereo not given)	N
Cc1ccccc1Cn1c(CO)nc2ccccc21	N
COc1ccc(Nc2c(-c3ccc(C)cc3)c(=O)c2=O)c(OC)c1	N
Cc1cc2c(c(=O)o1)C1(C(=O)Nc3ccc(Br)cc31)C(C#N)=C(N)O2 (stereo not given)	N
CS(=O)(=O)Oc1ccc(Br)c2cccnc12	N
O=C(c1ccc2c(c1)CCO2)N1CCC(Cc2ccc(CO)cc2)C1 (stereo not given)	N
CC1=C(C(=O)OC(C)(C)C)C(c2cccs2)C(C#N)=C(N)O1 (stereo not given)	N
COc1cc(OC)c(NS(=O)(=O)c2cc(Br)cnc2N)cc1Cl	N
CCC(NCC(=O)Nc1ccc(Cl)c(OC)c1)c1ccnn1C (stereo not given)	N
CC(c1ccccc1)N1CC(=O)C(c2nc3ccccc3s2)=C1N (stereo not given)	N
CCN1C(=O)C2(C(C#N)=C(N)Oc3c2c(=O)oc2ccccc32)c2ccccc21 (stereo not given)	N
C=CCn1cc(CNCc2nncn2CCc2ccccc2)c(C)n1	N
CCO[C@H]1C[C@@H](O)C12CCN(C(=O)CC1=C(c3ccccc3)CCC1=O)CC2	N
Oc1ccc2c3c1O[C@H]1c4[nH]c5c(c4C[C@@]4(O)[C@H](C2)N(CC2CC2)CC[C@]314)C[C@@]1(O)[C@H]2Cc3ccc(O)c4c3[C@@]1(CCN2CC1CC1)[C@H]5O4	N
Cc1cccc(NC(=O)c2sc3nc4c(cc3c2N)CN(Cc2ccccc2)CC4)c1	N
CCOc1cc(CNc2ncc(-c3ccc(Br)cc3)n2C)ccc1O	N
CCOC(=O)c1c(NC2=CC(=O)CC(c3ccccc3)C2)sc2c1CCCC2 (stereo not given)	N
Nc1c(NCCN2CCCCC2)c2ccccc2oc1=O	N
CCNc1nc(C)cc(N2CCN(S(=O)(=O)c3ccc(OCC)cc3)CC2)n1	N
CN(C)c1cc(NC(=O)CNC(C)(C)C)c(O)c2c1C[C@H]1C[C@H]3[C@H](N(C)C)C(=O)C(C(N)=O)=C(O)[C@@]3(O)C(=O)C1=C2O	N
CCN(CCCCCCN)c1ccc2c(=O)[nH][nH]c(=O)c2c1	N
Cc1cccc(-c2nc3nc(C)c(CC(=O)N(CCO)Cc4ccccc4)c(C)n3n2)c1	N
CCC(C)NS(=O)(=O)c1ccc(N)cc1 (stereo not given)	N
CCOC(=O)C1CCCN(c2c(NCCN(C)Cc3ccccc3)c(=O)c2=O)C1 (stereo not given)	N
CCN(CC)CCCNCc1ccc2c(c1)n(C)c(=O)n2C	N

Some entries from above, unchanged:

| SMILES | PreQ1 |
|---|---|
| `CC1=C(C(=O)OC(C)(C)C)C(c2cccs2)C(C#N)=C(N)O1` (stereo not given) | N |
| `COc1ccc2cc(-c3ccccc3CN)ccc2c1` | Y |
| `CCOc1ccc(C2c3c(-c4cc(C)ccc4O)n[nH]c3C(=O)N2CCCO)cc1OC` (stereo not given) | N |
| `CS(=O)(=O)Oc1ccc(Br)c2cccnc12` | N |
| `O=C(c1cccc(Oc2ccccc2)c1)N1CCOCC(CO)C1` (stereo not given) | N |

Source: the ROBIN nucleic acid binder screens (doi:10.1002/anie.202211358).